The filed quantity is “Percent Effect” (%).
How 0% and 100% were set is not recorded. Most values in the screen are low, and negative values occur.
This is an unselected part of the compounds tested.
A dash means the value is not listed here; it may have been measured.

Mtb growth Cornell: 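Whole-cell assay for inhibitors of Mycobacterium tuberculosis growth, labelled Cornell in the record; the read-out is not stated. The concentration is filed as 10 mM, unlikely as a test dose, so the dose is not known. The record gives no direction; compounds strong in two other growth screens of this library score well above the rest, so higher reads as stronger inhibition. About 53,000 compounds were tested under these conditions; 1.7% (about 900) showed 50% or more at least once.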
Mtb heat-shock: 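Assay on Mycobacterium tuberculosis, filed only as a heat shock assay from Cornell; the read-out is not stated. The concentration is filed as 10 mM, unlikely as a test dose, so the dose is not known. The record gives no direction; compounds that gave an IC50 in retests scored well above the rest, so higher reads as stronger inhibition. About 69,000 compounds were tested under these conditions; 1.4% (about 930) showed 50% or more at least once.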

| # | SMILES | Mtb growth Cornell | Mtb heat-shock |
|---|---|---|---|
| 1 | `c1ccc2ncc(CC3CNCCOC3)cc2c1` (stereo not given) | 4.4% | 6.25% |
| 2 | `Cc1nc(CC(=O)N2CCCC2Cn2cccn2)cs1` (stereo not given) | -37.64% | -8.965% |
| 3 | `Cc1cnn(CC(C)NCc2ccc(OCc3cccnc3)cc2)c1` (stereo not given) | 16.17% | 5.678% |
| 4 | `COc1c(Br)cc(Cl)cc1NCc1c(C)noc1C` | -0.08703% | -31% |
| 5 | `Cc1nc(C2CCCN2Cc2cc(Cl)c3c(c2)OCO3)no1` (stereo not given) | 32.93% | 23.98% |
| 6 | `O=C(CC1CC1)N1CCN(Cc2cccnc2)c2ncccc2C1.O=C(O)C(F)(F)F.O=C(O)C(F)(F)F` | 34.91% | -17.37% |
| 7 | `CCN(Cc1noc(CC(C)C)n1)Cc1ccccc1C(=O)O` | 0.7133% | 5.796% |
| 8 | `CC(=O)N1CCN(C2CCCCc3ccccc32)CC1` (stereo not given) | 12.4% | 1.152% |
| 9 | `O=C1NCC(c2ccc(Cl)cc2)Cc2[nH]c(CCN3CCOCC3)nc21` (stereo not given) | - | 11.75% |
| 10 | `CCOCCCn1c(NC(=O)c2cc(C)no2)nc2ccccc21` | - | 4.963% |
| 11 | `Cc1ccc(CN2CCCC3(CCN(S(=O)(=O)N(C)C)C3)C2)o1` (stereo not given) | - | 10.07% |
| 12 | `CC(C)Oc1ncccc1CNC(=O)N1CCSCC1` | - | -12.22% |
| 13 | `CC(=O)N[C@@H]1CN(Cc2ccc(F)cc2F)C[C@H]1c1ccc(C)o1` | -4.005% | -12.21% |
| 14 | `CC(=O)N1CCC(c2ncc3c(n2)CCN(C(=O)c2ccccc2)C3)C1` (stereo not given) | -54.04% | -5.69% |
| 15 | `O=C(N[C@H]1CN2CCC1CC2)c1cc(Cn2cnc3ccccc32)[nH]n1` | - | -130.5% |
| 16 | `COCCCN1CC2(CCCN(c3ncc(Cl)cc3F)C2)CCC1=O` (stereo not given) | 24.94% | -27.09% |
| 17 | `Cc1cnn(CCNCc2ccc(OCc3csc(C)n3)cc2)c1` | 22% | 5.493% |
| 18 | `O=C(O)C(F)(F)F.O=C(O)C(F)(F)F.[H][C@@]12CN(Cc3cnn(C)c3)CCO[C@]1([H])CN(Cc1ccoc1)C2` | 21.49% | -23.36% |
| 19 | `O=C(O)C(F)(F)F.O=C(O)C(F)(F)F.[H][C@]12CCN(Cc3cccc(C#N)c3)C[C@@]1([H])[C@H](CN1CCCC1)OC2` | -18.44% | 3.017% |
| 20 | `O=C(O)C(F)(F)F.O=C1CC2(CCCCN2C(=O)Cc2ccccc2)CN1c1cccnc1` (stereo not given) | 16.91% | -11.43% |
| 21 | `CC(=O)N1CC(=O)N(c2cnn(C)c2)CC12CCN(Cc1ccoc1)C2` (stereo not given) | 6.954% | 15.2% |
| 22 | `Cn1nnc2c1CCN(C(C(=O)N1CCCCC1)c1ccccc1)C2` (stereo not given) | - | -25.67% |
| 23 | `CCc1nc(CNc2cc(Cl)ccc2OCC2CCCO2)no1` (stereo not given) | 22.45% | 1.749% |
| 24 | `CN(C)CCn1c2c(ccc1=O)CC(NC(=O)c1cnccn1)CC2.O=C(O)C(F)(F)F` (stereo not given) | -9.987% | 33.5% |
| 25 | `CN(C)CCn1c2c(ccc1=O)CC(NC(=O)NC1CCCC1)CC2.O=C(O)C(F)(F)F` (stereo not given) | 3.463% | 2.521% |
| 26 | `CC(C(=O)NCc1ccc(N2CCCC2)nc1)n1cncn1` (stereo not given) | -7.419% | -2.04% |
| 27 | `CCN1CCC(NC(=O)CN2CCc3c(ncn3C3CC3)C2)CC1` | - | 34.46% |
| 28 | `O=C(O)C(F)(F)F.[H][C@@]12OCCN(CC3CCC3)[C@@]1([H])CC[C@H]2OCC` | 1.506% | -27.51% |
| 29 | `CC(C)Nc1nc(O)cc(C(C)n2ncc3ccccc3c2=O)n1` (stereo not given) | 16.97% | 2.004% |
| 30 | `Cc1ccc(N2CCC(c3cc(Cc4ccccc4)n[nH]3)CC2)nn1` | - | 6.303% |
| 31 | `CC(C)NC(=O)N1CCOC2(CCCN(c3cccc(C#N)c3)C2)C1` (stereo not given) | 4.539% | 1.064% |
| 32 | `O=C(Nc1cnc(Oc2ccccc2)nc1)C1CC1` | 23.36% | 29.68% |
| 33 | `O=C(O)C(F)(F)F.[H][C@@]12OCCN(S(=O)(=O)N(C)C)[C@@]1([H])CC[C@H]2Oc1cccnc1` | 0.2955% | -23.12% |
| 34 | `COCC1Cn2nnc(-c3cnn(C)c3)c2CN1Cc1ccoc1.O=C(O)C(F)(F)F` (stereo not given) | 17.85% | 5.008% |
| 35 | `O=C(O)C(F)(F)F.O=C(O)C(F)(F)F.c1ccc(CN2CCc3ncnc(-c4cccnc4)c3CC2)nc1` | 28.64% | -5.785% |
| 36 | `CCCN(CC1CC1)S(=O)(=O)c1ccc(NC(C)=O)cc1` | -4.04% | -2.369% |
| 37 | `O=C(C1CCCCC1)N1CCN(Cc2nc(-c3ccco3)no2)CC1` | -6.084% | -5.791% |
| 38 | `COCCN1CCC(CNCc2c[nH]nc2C(C)(C)C)CC1` | -16.72% | -7.94% |
| 39 | `Cc1cnn(CC2CCCCN2C(=O)c2cc(Cl)c[nH]2)c1` (stereo not given) | 27.8% | 18.1% |
| 40 | `[H][C@@]12CS(=O)(=O)C[C@]1([H])N(C(=O)c1cnccc1C)CCN2CCC` | - | -16.84% |
| 41 | `O=C(NCCO)c1ccn(-c2ccc3ccccn23)n1` | 1.821% | -15.18% |
| 42 | `c1cc(CN2CCCn3nnc(COCC4CC4)c3C2)ccn1` | -10.22% | 12.65% |
| 43 | `CC(=O)N1N=C(c2ccccc2)OC1C(=O)NCCc1cccc(F)c1` (stereo not given) | -9.855% | 26% |
| 44 | `CNC(=O)c1cn[nH]c1C1(C)CCCN(CC2(O)CCCCC2)C1` (stereo not given) | -41.43% | -15.66% |
| 45 | `CN(C)CC1CN(Cc2nc(-c3cccnc3)no2)CCO1` (stereo not given) | - | -11.97% |
| 46 | `CC(Nc1ccc(Br)cc1)c1nc(C2CC2)no1` (stereo not given) | 54.33% | 41.66% |
| 47 | `CN(C)S(=O)(=O)NCc1nc(-c2cccc(F)c2)c(-c2ccccn2)[nH]1` | 33.72% | 62.81% |
| 48 | `CC(=O)N1CCc2c(nc(N(C)C)nc2N(C)CCCC2CCCO2)C1` (stereo not given) | -2.854% | -28.67% |
| 49 | `O=C(O)C(F)(F)F.[H][C@@]12CCN(CC(=O)NC)C[C@]1([H])CN(C(=O)c1ccoc1)C2` | - | -0.3429% |
| 50 | `CCc1ccc(CN2CCc3c(nnn3C)C2COC)cc1.O=C(O)C(F)(F)F` (stereo not given) | -11.74% | 8.249% |
| 51 | `COCCN1CCC(CNC(=O)C2(c3cccc(C)c3)CC2)CC1` | - | -3.226% |
| 52 | `CC(C)(C)c1nc(CC(=O)NC2CCN(C3CC3)C2)cs1` (stereo not given) | 3.09% | 15.59% |
| 53 | `Cc1cc(Cl)ccc1C(=O)N[C@H]1CN(S(C)(=O)=O)C[C@@H]1C1CC1` | -1.678% | 7.325% |
| 54 | `CCC(NC(=O)Cn1ccc(=O)n(C)c1=O)c1ccccc1OC` (stereo not given) | 17.46% | 1.13% |
| 55 | `Cc1nnc(NC(=O)N2CCCN(C3CCCC3)CC2)s1` | - | 6.192% |
| 56 | `Cc1nc(CN(C)C2CCN(CC3CCCCC3)C2)no1` (stereo not given) | 11.95% | 2.15% |

The first 6 entries again:

{"smiles": "c1ccc2ncc(CC3CNCCOC3)cc2c1", "stereo": "stereo not given", "Mtb growth Cornell": 4.4, "Mtb heat-shock": 6.25}
{"smiles": "Cc1nc(CC(=O)N2CCCC2Cn2cccn2)cs1", "stereo": "stereo not given", "Mtb growth Cornell": -37.64, "Mtb heat-shock": -8.965}
{"smiles": "Cc1cnn(CC(C)NCc2ccc(OCc3cccnc3)cc2)c1", "stereo": "stereo not given", "Mtb growth Cornell": 16.17, "Mtb heat-shock": 5.678}
{"smiles": "COc1c(Br)cc(Cl)cc1NCc1c(C)noc1C", "Mtb growth Cornell": -0.08703, "Mtb heat-shock": -31}
{"smiles": "Cc1nc(C2CCCN2Cc2cc(Cl)c3c(c2)OCO3)no1", "stereo": "stereo not given", "Mtb growth Cornell": 32.93, "Mtb heat-shock": 23.98}
{"smiles": "O=C(CC1CC1)N1CCN(Cc2cccnc2)c2ncccc2C1.O=C(O)C(F)(F)F.O=C(O)C(F)(F)F", "Mtb growth Cornell": 34.91, "Mtb heat-shock": -17.37}

The values are deposited in ChEMBL (CHEMBL3988442, “University of Dundee, Small-Polar-MMV Screening Library” (2021)).